Laboratory results published in the supplement of paper PMC12823440, “Inhibitors supercharge kinase turnover through native proteolytic circuits” (Nature, 2025).
Structures can show the parent of a compound that is named as a salt. The list shows a part of the results. Hit calls seldom repeat between salt and free forms of one compound.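 Kinases were expressed as nanoluciferase fusions in K562 cells and luminescence was read every 4 h between 2 and 18 h as percent of control, DMSO set to 100% and a positive control to 0%. A time point counts as decreased when the signal drops significantly (2 sigma). The hit call is the authors' own, does not follow from the count of time points alone, and its rule is not shown.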

Protein sequences, listed by entry. Tags and fused reporters are not part of them. Lines headed by an entry give the natural chain unless they say otherwise; changes in a name come on top.
UniProt Q06187: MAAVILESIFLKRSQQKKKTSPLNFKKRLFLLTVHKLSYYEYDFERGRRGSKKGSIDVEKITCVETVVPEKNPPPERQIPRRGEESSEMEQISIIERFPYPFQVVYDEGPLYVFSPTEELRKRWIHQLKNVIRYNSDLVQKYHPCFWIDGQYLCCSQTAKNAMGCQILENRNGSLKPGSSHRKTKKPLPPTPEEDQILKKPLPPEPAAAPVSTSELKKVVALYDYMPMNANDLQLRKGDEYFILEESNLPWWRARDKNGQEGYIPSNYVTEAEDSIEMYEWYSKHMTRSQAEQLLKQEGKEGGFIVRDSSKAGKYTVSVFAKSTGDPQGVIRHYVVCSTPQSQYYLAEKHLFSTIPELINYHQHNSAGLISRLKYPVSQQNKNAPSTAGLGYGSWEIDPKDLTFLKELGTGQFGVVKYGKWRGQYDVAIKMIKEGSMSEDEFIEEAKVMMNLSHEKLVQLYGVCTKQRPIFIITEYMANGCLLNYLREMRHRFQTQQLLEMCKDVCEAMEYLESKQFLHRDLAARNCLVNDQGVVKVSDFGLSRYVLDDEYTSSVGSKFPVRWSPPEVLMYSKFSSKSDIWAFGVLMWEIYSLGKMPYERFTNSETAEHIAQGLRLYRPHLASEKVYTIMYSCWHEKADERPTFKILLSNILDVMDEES
UniProt Q9UQM7, whole entry: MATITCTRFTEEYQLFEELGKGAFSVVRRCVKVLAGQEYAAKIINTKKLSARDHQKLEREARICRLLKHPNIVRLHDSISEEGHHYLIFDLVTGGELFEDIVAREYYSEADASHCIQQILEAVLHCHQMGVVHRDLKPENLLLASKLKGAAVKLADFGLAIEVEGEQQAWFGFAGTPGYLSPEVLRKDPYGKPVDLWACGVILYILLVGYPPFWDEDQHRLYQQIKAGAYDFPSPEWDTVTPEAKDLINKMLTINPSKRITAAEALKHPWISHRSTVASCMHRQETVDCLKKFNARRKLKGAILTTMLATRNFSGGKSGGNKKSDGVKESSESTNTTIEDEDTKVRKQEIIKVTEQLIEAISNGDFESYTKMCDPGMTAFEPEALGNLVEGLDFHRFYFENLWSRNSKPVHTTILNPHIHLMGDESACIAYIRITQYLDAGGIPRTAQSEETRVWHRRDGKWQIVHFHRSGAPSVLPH
UniProt Q00526: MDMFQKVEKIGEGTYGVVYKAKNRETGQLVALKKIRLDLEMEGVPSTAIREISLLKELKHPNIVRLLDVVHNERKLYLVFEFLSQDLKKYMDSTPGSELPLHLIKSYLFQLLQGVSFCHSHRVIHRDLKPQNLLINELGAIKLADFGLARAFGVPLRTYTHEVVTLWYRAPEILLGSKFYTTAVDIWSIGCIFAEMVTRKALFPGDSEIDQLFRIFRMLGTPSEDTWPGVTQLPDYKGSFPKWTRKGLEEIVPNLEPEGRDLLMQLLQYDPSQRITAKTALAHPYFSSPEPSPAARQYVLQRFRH
UniProt P11802: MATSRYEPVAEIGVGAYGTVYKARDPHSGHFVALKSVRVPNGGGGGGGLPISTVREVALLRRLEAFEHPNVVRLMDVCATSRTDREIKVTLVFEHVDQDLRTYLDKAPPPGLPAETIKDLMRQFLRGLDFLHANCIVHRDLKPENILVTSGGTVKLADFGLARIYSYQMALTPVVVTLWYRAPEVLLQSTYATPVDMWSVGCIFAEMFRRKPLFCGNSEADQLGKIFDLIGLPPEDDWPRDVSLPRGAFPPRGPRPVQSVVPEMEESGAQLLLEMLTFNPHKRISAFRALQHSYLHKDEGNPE
UniProt Q00535, whole entry, looked up: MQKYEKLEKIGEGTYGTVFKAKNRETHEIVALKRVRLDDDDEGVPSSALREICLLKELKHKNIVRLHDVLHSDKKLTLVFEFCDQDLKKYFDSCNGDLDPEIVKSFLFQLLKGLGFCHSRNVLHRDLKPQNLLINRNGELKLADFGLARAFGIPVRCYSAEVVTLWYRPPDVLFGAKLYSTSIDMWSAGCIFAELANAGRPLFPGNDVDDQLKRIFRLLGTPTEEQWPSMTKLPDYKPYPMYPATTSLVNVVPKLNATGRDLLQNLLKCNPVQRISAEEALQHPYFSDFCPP
UniProt Q00534, whole entry: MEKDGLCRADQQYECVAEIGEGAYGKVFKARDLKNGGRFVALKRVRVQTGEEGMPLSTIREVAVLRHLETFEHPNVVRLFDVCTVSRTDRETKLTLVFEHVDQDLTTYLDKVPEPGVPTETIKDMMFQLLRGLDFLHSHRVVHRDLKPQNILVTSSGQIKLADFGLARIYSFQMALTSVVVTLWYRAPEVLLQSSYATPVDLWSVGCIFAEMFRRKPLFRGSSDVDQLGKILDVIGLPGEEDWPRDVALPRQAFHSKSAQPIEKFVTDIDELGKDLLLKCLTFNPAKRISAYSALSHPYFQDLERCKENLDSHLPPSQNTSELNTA
UniProt P50750, whole entry: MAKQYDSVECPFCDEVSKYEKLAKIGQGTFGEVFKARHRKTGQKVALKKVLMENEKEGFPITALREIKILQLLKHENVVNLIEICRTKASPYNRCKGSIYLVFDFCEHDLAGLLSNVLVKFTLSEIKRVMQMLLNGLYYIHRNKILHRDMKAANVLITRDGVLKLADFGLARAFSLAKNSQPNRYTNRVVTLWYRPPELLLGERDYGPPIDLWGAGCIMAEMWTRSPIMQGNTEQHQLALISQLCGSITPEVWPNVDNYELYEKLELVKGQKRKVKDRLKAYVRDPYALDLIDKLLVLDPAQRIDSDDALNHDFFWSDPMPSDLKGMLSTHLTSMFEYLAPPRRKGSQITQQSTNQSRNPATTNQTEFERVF
UniProt O96017, whole entry: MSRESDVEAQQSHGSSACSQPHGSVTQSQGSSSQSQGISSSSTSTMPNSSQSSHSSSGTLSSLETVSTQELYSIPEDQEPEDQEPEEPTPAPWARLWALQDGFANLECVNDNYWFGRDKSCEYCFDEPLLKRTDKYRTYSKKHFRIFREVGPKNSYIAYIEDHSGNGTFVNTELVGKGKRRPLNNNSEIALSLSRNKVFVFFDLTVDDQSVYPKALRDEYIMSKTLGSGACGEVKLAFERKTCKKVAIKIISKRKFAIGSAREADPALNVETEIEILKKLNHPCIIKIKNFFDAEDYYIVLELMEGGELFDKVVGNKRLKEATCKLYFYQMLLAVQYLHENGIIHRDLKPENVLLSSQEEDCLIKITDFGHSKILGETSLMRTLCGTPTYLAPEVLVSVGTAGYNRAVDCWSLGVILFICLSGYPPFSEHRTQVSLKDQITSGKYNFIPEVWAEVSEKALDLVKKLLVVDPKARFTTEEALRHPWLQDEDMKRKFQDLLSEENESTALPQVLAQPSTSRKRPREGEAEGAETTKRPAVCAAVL
UniProt P41240: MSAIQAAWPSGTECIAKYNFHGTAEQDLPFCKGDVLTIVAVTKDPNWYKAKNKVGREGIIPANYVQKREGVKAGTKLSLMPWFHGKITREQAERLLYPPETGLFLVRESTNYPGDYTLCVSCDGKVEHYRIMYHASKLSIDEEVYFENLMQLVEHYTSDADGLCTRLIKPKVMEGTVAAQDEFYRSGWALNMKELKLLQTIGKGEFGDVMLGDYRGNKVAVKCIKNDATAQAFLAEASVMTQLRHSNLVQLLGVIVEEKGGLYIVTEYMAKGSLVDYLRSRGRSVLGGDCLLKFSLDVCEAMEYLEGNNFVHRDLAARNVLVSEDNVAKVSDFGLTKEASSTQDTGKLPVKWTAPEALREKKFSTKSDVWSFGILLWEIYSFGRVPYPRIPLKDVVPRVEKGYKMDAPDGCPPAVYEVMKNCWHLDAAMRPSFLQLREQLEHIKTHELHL
UniProt P48730: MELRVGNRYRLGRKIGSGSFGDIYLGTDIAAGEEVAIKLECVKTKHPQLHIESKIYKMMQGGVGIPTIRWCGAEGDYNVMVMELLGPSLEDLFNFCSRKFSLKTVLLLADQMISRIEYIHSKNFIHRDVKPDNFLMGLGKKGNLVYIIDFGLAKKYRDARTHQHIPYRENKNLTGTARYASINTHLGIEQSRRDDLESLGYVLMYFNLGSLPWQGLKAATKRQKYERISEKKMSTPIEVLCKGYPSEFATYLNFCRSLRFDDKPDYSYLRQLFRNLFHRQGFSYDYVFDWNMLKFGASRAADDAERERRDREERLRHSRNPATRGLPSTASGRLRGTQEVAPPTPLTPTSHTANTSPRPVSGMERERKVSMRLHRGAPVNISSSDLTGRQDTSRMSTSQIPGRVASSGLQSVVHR
UniProt Q08345: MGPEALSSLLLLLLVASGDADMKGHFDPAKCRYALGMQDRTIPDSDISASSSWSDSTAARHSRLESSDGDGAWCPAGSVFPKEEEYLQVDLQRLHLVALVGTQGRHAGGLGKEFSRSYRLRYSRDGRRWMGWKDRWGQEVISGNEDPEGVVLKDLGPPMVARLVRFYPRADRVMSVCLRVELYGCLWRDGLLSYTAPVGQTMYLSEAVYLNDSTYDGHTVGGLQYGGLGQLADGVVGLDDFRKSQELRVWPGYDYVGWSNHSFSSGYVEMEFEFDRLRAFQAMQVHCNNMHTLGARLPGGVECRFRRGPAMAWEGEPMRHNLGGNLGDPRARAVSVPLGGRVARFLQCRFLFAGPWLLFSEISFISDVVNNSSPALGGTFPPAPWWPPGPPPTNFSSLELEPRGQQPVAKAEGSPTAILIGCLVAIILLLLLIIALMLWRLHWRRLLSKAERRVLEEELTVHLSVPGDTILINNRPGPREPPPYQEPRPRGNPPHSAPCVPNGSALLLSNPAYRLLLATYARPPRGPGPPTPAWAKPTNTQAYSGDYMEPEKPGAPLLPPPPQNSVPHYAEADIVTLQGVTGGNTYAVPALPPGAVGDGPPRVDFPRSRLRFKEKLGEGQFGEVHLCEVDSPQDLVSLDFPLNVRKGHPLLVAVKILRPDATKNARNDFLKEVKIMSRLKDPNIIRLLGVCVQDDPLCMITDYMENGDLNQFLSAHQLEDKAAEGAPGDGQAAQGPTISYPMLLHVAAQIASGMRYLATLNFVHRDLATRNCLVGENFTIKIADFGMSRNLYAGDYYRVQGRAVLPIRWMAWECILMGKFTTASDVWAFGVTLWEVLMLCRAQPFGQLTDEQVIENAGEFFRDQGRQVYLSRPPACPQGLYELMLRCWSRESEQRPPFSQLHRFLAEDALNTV
UniProt Q9Y463, whole entry, looked up: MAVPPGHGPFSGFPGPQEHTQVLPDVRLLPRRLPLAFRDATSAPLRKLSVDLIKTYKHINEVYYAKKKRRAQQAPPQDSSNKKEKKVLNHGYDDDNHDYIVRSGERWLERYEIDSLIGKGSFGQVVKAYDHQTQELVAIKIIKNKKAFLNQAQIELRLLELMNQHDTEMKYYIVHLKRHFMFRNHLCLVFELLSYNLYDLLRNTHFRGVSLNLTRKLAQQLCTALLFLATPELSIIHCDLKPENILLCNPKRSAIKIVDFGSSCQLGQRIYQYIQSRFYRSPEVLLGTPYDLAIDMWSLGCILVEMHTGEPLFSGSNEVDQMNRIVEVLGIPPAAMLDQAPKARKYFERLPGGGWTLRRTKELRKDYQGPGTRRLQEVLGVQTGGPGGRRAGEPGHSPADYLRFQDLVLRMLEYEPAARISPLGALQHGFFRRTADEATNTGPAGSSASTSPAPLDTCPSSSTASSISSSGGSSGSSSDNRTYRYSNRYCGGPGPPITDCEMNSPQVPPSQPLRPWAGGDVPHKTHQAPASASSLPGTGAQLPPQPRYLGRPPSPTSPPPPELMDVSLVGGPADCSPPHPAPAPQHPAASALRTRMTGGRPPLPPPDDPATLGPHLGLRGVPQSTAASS
UniProt Q92630: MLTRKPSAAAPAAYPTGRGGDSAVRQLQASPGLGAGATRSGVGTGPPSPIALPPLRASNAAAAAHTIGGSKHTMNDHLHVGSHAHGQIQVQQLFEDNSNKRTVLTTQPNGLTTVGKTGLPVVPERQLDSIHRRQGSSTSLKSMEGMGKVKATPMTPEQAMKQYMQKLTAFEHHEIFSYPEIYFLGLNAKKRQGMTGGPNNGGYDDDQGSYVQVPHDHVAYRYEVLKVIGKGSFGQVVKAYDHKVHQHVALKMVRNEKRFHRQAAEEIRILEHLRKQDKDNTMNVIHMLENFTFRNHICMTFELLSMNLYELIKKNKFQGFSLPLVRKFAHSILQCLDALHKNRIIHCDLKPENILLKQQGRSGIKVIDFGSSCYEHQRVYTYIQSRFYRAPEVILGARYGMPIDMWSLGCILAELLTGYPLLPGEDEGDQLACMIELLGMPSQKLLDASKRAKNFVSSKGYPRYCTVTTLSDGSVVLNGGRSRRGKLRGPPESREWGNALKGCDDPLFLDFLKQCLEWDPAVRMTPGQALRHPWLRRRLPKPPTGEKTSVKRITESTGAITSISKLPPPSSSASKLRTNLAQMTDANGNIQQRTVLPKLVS

Experiments:
Assay in all cases: kinase-Nluc reporter destabilization hit call (1 = scored as downregulated) (binary); higher = compound decreases kinase abundance
Conditions in all cases: K562; 2-18 h
BRAF_V600E = tested on: BRAF_V600E
BTK = BTK (UniProt Q06187)
CAMK2A = CAMK2A (UniProt Q9UQM7)
CAMK2G = CAMK2G (UniProt Q13555)
CDK10 = CDK10 (UniProt Q15131)
CDK2 = CDK2 (UniProt P24941)
CDK3 = CDK3 (UniProt Q00526)
CDK4 = CDK4 (UniProt P11802)
CDK5 = CDK5 (UniProt Q00535)
CDK6 = CDK6 (UniProt Q00534)
CDK7 = CDK7 (UniProt P50613)
CDK9 = CDK9 (UniProt P50750)
CHEK2 = CHEK2 (UniProt O96017)
CSF1R = CSF1R (UniProt P07333)
CSK = CSK (UniProt P41240)
CSNK1A1 = CSNK1A1 (UniProt P48729)
CSNK1D = CSNK1D (UniProt P48730)
DDR1 = DDR1 (UniProt Q08345)
DYRK1B = DYRK1B (UniProt Q9Y463)
DYRK2 = DYRK2 (UniProt Q92630)

Measured: kinase-Nluc reporter destabilization hit call

COc1cc2ncn(-c3cc(OCc4ccccc4S(C)(=O)=O)c(C#N)s3)c2cc1OC (10 µM)
inactive: BRAF_V600E 0 | BTK 0 | CAMK2A 0 | CAMK2G 0 | CDK10 = 0 | CDK2 = 0 | CDK3 = 0 | CDK4 = 0 | CDK5 = 0 | CDK6 = 0 | CDK7 = 0 | CDK9 = 0 | CHEK2 = 0 | CSF1R 0 | CSK 0 | CSNK1A1 = 0 | CSNK1D 0 | DDR1 = 0 | DYRK1B 0 | DYRK2 = 0

Cc1ccc(-c2c(C(=O)CCl)n(CCCO)c3ncnc(N)c23)cc1 (10 µM)
active: CSF1R 1
inactive: BRAF_V600E 0 | BTK 0 | CAMK2A 0 | CAMK2G 0 | CDK10 = 0 | CDK2 = 0 | CDK3 = 0 | CDK4 = 0 | CDK5 = 0 | CDK6 = 0 | CDK7 = 0 | CDK9 = 0 | CHEK2 = 0 | CSK 0 | CSNK1A1 = 0 | CSNK1D 0 | DDR1 = 0 | DYRK1B 0 | DYRK2 = 0

NC1(Cc2ccc(Cl)cc2)CCN(c2ncnc3[nH]ccc23)CC1 (10 µM)
inactive: BRAF_V600E 0 | BTK 0 | CAMK2A 0 | CAMK2G 0 | CDK10 = 0 | CDK2 = 0 | CDK3 = 0 | CDK4 = 0 | CDK5 = 0 | CDK6 = 0 | CDK7 = 0 | CDK9 = 0 | CHEK2 = 0 | CSF1R 0 | CSK 0 | CSNK1A1 = 0 | CSNK1D 0 | DDR1 = 0 | DYRK1B 0 | DYRK2 = 0

Cc1cc(NC(=O)c2cccc(NC(=O)/C=C/CN(C)C)c2)ccc1Nc1nccc(-c2cccnc2)n1 (10 µM)
inactive: BRAF_V600E 0 | BTK 0 | CAMK2A 0 | CAMK2G 0 | CDK10 = 0 | CDK2 = 0 | CDK3 = 0 | CDK4 = 0 | CDK5 = 0 | CDK6 = 0 | CDK7 = 0 | CDK9 = 0 | CHEK2 = 0 | CSF1R 0 | CSK 0 | CSNK1A1 = 0 | CSNK1D 0 | DDR1 = 0 | DYRK1B 0 | DYRK2 = 0

O=C(NCCCNC(=O)Nc1cccc(C2=NCCN2)c1)Nc1cccc(C2=NCCN2)c1 [p32 Inhibitor M36] (10 µM)
inactive: BRAF_V600E 0 | BTK 0 | CAMK2A 0 | CAMK2G 0 | CDK10 = 0 | CDK2 = 0 | CDK3 = 0 | CDK4 = 0 | CDK5 = 0 | CDK6 = 0 | CDK7 = 0 | CDK9 = 0 | CHEK2 = 0 | CSF1R 0 | CSK 0 | CSNK1A1 = 0 | CSNK1D 0 | DDR1 = 0 | DYRK1B 0 | DYRK2 = 0

No new results follow: 2 of the compounds above.
COc1cc2ncn(-c3cc(OCc4ccccc4S(C)(=O)=O)c(C#N)s3)c2cc1OC (10 µM)
inactive: BRAF_V600E 0 | BTK 0 | CAMK2A 0 | CAMK2G 0 | CDK10 = 0 | CDK2 = 0 | CDK3 = 0 | CDK4 = 0 | CDK5 = 0 | CDK6 = 0 | CDK7 = 0 | CDK9 = 0 | CHEK2 = 0 | CSF1R 0 | CSK 0 | CSNK1A1 = 0 | CSNK1D 0 | DDR1 = 0 | DYRK1B 0 | DYRK2 = 0

Cc1ccc(-c2c(C(=O)CCl)n(CCCO)c3ncnc(N)c23)cc1 (10 µM)
active: CSF1R 1
inactive: BRAF_V600E 0 | BTK 0 | CAMK2A 0 | CAMK2G 0 | CDK10 = 0 | CDK2 = 0 | CDK3 = 0 | CDK4 = 0 | CDK5 = 0 | CDK6 = 0 | CDK7 = 0 | CDK9 = 0 | CHEK2 = 0 | CSK 0 | CSNK1A1 = 0 | CSNK1D 0 | DDR1 = 0 | DYRK1B 0 | DYRK2 = 0

(list continues)

O=C(CNC(=O)c1ccc(-c2ccccc2)cc1)NC1CCCc2ccccc21 (stereo not given) [TAO Kinase inhibitor 1] (10 µM)
inactive: BRAF_V600E 0 | BTK 0 | CAMK2A 0 | CAMK2G 0 | CDK10 = 0 | CDK2 = 0 | CDK3 = 0 | CDK4 = 0 | CDK5 = 0 | CDK6 = 0 | CDK7 = 0 | CDK9 = 0 | CHEK2 = 0 | CSF1R 0 | CSK 0 | CSNK1A1 = 0 | CSNK1D 0 | DDR1 = 0 | DYRK1B 0 | DYRK2 = 0

Cn1cc(-c2ccc(CNc3cc(-c4cnc5cc(OCCCN6CCCC6)ccn45)ncn3)cc2)cn1 (10 µM)
inactive: BRAF_V600E 0 | BTK 0 | CAMK2A 0 | CAMK2G 0 | CDK10 = 0 | CDK2 = 0 | CDK3 = 0 | CDK4 = 0 | CDK5 = 0 | CDK6 = 0 | CDK7 = 0 | CDK9 = 0 | CHEK2 = 0 | CSF1R 0 | CSK 0 | CSNK1A1 = 0 | CSNK1D 0 | DDR1 = 0 | DYRK1B 0 | DYRK2 = 0

c1cn2cc(-c3ccc4cn[nH]c4c3)nc(Nc3ccc(N4CCOCC4)cc3)c2n1 [Entospletinib] (10 µM)
inactive: BRAF_V600E 0 | BTK 0 | CAMK2A 0 | CAMK2G 0 | CDK10 = 0 | CDK2 = 0 | CDK3 = 0 | CDK4 = 0 | CDK5 = 0 | CDK6 = 0 | CDK7 = 0 | CDK9 = 0 | CHEK2 = 0 | CSF1R 0 | CSK 0 | CSNK1A1 = 0 | CSNK1D 0 | DDR1 = 0 | DYRK1B 0 | DYRK2 = 0

CN1C(=O)C(Cc2c[nH]c3ccccc23)NC1=S (stereo not given) [Necrostatin-1] (10 µM)
inactive: BRAF_V600E 0 | BTK 0 | CAMK2A 0 | CAMK2G 0 | CDK10 = 0 | CDK2 = 0 | CDK3 = 0 | CDK4 = 0 | CDK5 = 0 | CDK6 = 0 | CDK7 = 0 | CDK9 = 0 | CHEK2 = 0 | CSF1R 0 | CSK 0 | CSNK1A1 = 0 | CSNK1D 0 | DDR1 = 0 | DYRK1B 0 | DYRK2 = 0

CCOc1ccc(C(=O)Nc2ncc([N+](=O)[O-])s2)cc1 (10 µM)
inactive: BRAF_V600E 0 | BTK 0 | CAMK2A 0 | CAMK2G 0 | CDK10 = 0 | CDK2 = 0 | CDK3 = 0 | CDK4 = 0 | CDK5 = 0 | CDK6 = 0 | CDK7 = 0 | CDK9 = 0 | CHEK2 = 0 | CSF1R 0 | CSK 0 | CSNK1A1 = 0 | CSNK1D 0 | DDR1 = 0 | DYRK1B 0 | DYRK2 = 0

O=c1cc(O)cc(/C=C/c2ccc(O)c(O)c2)o1 [Hispidin] (10 µM)
inactive: BRAF_V600E 0 | BTK 0 | CAMK2A 0 | CAMK2G 0 | CDK10 = 0 | CDK2 = 0 | CDK3 = 0 | CDK4 = 0 | CDK5 = 0 | CDK6 = 0 | CDK7 = 0 | CDK9 = 0 | CHEK2 = 0 | CSF1R 0 | CSK 0 | CSNK1A1 = 0 | CSNK1D 0 | DDR1 = 0 | DYRK1B 0 | DYRK2 = 0

OCCNC1CCCc2c1[nH]c1ccc(-c3ccccc3)cc21 (stereo not given) (2.5 µM)
inactive: BRAF_V600E 0 | BTK 0 | CAMK2A 0 | CAMK2G 0 | CDK10 = 0 | CDK2 = 0 | CDK3 = 0 | CDK4 = 0 | CDK5 = 0 | CDK6 = 0 | CDK7 = 0 | CDK9 = 0 | CHEK2 = 0 | CSF1R 0 | CSK 0 | CSNK1A1 = 0 | CSNK1D 0 | DDR1 = 0 | DYRK1B 0 | DYRK2 = 0

CC(C)NC(=O)N1CC[C@H](NC2=Nc3cc(F)ccc3N(CC(F)F)c3ccc(Cl)cc32)C1 (10 µM)
inactive: BRAF_V600E 0 | BTK 0 | CAMK2A 0 | CAMK2G 0 | CDK10 = 0 | CDK2 = 0 | CDK3 = 0 | CDK4 = 0 | CDK5 = 0 | CDK6 = 0 | CDK7 = 0 | CDK9 = 0 | CHEK2 = 0 | CSF1R 0 | CSK 0 | CSNK1A1 = 0 | CSNK1D 0 | DDR1 = 0 | DYRK1B 0 | DYRK2 = 0

CO[C@H]1C[C@@H]2CC[C@@H](C)[C@@](O)(O2)C(=O)C(=O)N2CCCC[C@H]2C(=O)O[C@H]([C@H](C)C[C@@H]2CC[C@@H](O)[C@H](OC)C2)CC(=O)[C@H](C)/C=C(\C)[C@@H](O)[C@@H](OC)C(=O)[C@H](C)C[C@H](C)/C=C/C=C/C=C/1C [Rapamycin] (10 µM)
inactive: BRAF_V600E 0 | BTK 0 | CAMK2A 0 | CAMK2G 0 | CDK10 = 0 | CDK2 = 0 | CDK3 = 0 | CDK4 = 0 | CDK5 = 0 | CDK6 = 0 | CDK7 = 0 | CDK9 = 0 | CHEK2 = 0 | CSF1R 0 | CSK 0 | CSNK1A1 = 0 | CSNK1D 0 | DDR1 = 0 | DYRK1B 0 | DYRK2 = 0

O=[N+]([O-])c1cc(C(F)(F)F)cc([N+](=O)[O-])c1NNC(=S)Nc1ccc(F)cc1 (10 µM)
inactive: BRAF_V600E 0 | BTK 0 | CAMK2A 0 | CAMK2G 0 | CDK10 = 0 | CDK2 = 0 | CDK3 = 0 | CDK4 = 0 | CDK5 = 0 | CDK6 = 0 | CDK7 = 0 | CDK9 = 0 | CHEK2 = 0 | CSF1R 0 | CSK 0 | CSNK1A1 = 0 | CSNK1D 0 | DDR1 = 0 | DYRK1B 0 | DYRK2 = 0

COc1cc(S(C)(=O)=O)ccc1Nc1nc2ccc(-c3ccc(NC(=O)[C@H](C)c4ccc(F)cc4)cc3)cn2n1 [Empesertib] (10 µM)
inactive: BRAF_V600E 0 | BTK 0 | CAMK2A 0 | CAMK2G 0 | CDK10 = 0 | CDK2 = 0 | CDK3 = 0 | CDK4 = 0 | CDK5 = 0 | CDK6 = 0 | CDK7 = 0 | CDK9 = 0 | CHEK2 = 0 | CSF1R 0 | CSK 0 | CSNK1A1 = 0 | CSNK1D 0 | DDR1 = 0 | DYRK1B 0 | DYRK2 = 0

Cc1ccc(S(=O)(=O)/C=C/C#N)cc1 (10 µM)
inactive: BRAF_V600E 0 | BTK 0 | CAMK2A 0 | CAMK2G 0 | CDK10 = 0 | CDK2 = 0 | CDK3 = 0 | CDK4 = 0 | CDK5 = 0 | CDK6 = 0 | CDK7 = 0 | CDK9 = 0 | CHEK2 = 0 | CSF1R 0 | CSK 0 | CSNK1A1 = 0 | CSNK1D 0 | DDR1 = 0 | DYRK1B 0 | DYRK2 = 0

N[C@H](Cc1c[nH]c2ccccc12)C(=O)N/N=C/c1ccc2nccnc2c1 [Rhosin (hydrochloride)] (10 µM)
inactive: BRAF_V600E 0 | BTK 0 | CAMK2A 0 | CAMK2G 0 | CDK10 = 0 | CDK2 = 0 | CDK3 = 0 | CDK4 = 0 | CDK5 = 0 | CDK6 = 0 | CDK7 = 0 | CDK9 = 0 | CHEK2 = 0 | CSF1R 0 | CSK 0 | CSNK1A1 = 0 | CSNK1D 0 | DDR1 = 0 | DYRK1B 0 | DYRK2 = 0
